According to publication PMC3322156:
Results are given in words; binding and its absence hold for the method and conditions named. Some binding calls cover weakened binding; strength is not graded here.

Sequences of proteins named here, by UniProt entry; tags and fusion partners are left off.
UniProt Q9CQJ4: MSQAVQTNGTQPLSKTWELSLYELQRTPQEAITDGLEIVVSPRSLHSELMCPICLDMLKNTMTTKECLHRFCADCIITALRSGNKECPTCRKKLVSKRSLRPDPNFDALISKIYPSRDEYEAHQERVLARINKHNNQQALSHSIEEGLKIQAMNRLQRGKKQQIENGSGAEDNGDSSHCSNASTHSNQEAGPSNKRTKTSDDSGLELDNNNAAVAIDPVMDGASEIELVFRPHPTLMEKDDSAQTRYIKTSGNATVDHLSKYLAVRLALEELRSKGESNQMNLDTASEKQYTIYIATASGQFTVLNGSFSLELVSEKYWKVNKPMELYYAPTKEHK

Target: Ring1B (mouse (endogenous in ESCs)) (UniProt Q9CQJ4)
Assay: SEC; 1 mg WT E14 ESC nuclear extract treated with RNase A and Benzonase, Superose 6 10/300 GL in BC200 buffer; every other 0.5 ml fraction TCA precipitated and immunoblotted

B1: Rybp (protein, UniProt Q8CCI5 1-228)
chain: MTMGDKKSPTRPKRQAKPAADEGFWDCSVCTFRNSAEAFKCSICDVRKGTSTRKPRINSQLVAQQVAQQYATPPPPKKEKKEKVEKPDKEKPEKDKDISPSVTKKNTNKKTKPKSDILKDPPSEANSIQSANATTKTSETNHTSRPRLKNVDRSTAQQLAVTVGNVTVIITDFKEKTRSSSTSSSTVTSSAGSEQQNQSSSGSESTDKGSSRSSTPKGDMSAVNDESF
- binding: binds
